# Literature values as cited in patent US20220079915A1, “IMMUNOSUPPRESSIVE PHARMACEUTICAL COMPOSITION AND APPLICATION THEREOF” (Shanghai Archeus Biotech Co., Ltd., priority 2018, published 2022).
# At least one compound was matched to its structure with a doubt left.
# Molecular target: adenylate cyclase
# Conditions: source [6]; read-out: adenylate cyclase activation EC50; cited from earlier work
smiles,measurement,value
C=CC1(C)CC(=O)C2(O)C(C)(O1)C(OC(C)=O)C(OC(=O)CCN1CCCCC1)C1C(C)(C)CCC(O)C12C (stereo not shown) [6-[(1-piperidino)propionyl]forskolin],EC50,1000 to 2000 nM
